Assay results taken from PMC7582705, “Structure-Based Discovery of Novel Chemical Classes of Autotaxin Inhibitors” (International Journal of Molecular Sciences, 2020).

test system: choline oxidase and/or HRP; assay: Second/third reaction of the Amplex Red assay, in the absence of ATX; format: biochemical; details: no ATX, choline chloride 2 µM; compounds at 100 μM (KM-28 50 μM, SC-41 30 μM)

SMILES	Inhibition of 2nd/3rd Reaction
CCOC(=O)c1c(CN2CCCCC2)n(Cc2ccccc2)c2cc(Br)c(O)cc12 [KM-14, ethyl 1-benzyl-6-bromo-5-hydroxy-2-(piperidin-1-ylmethyl)-1H-indole-3-carboxylate]	no
Cc1cccc(C)c1NC(=O)CSc1nc2ccccc2c(=O)n1CCc1cccs1 [KM-28, N-(2,6-dimethylphenyl)-2-[4-oxo-3-(2-thiophen-2-ylethyl)quinazolin-2-yl]sulfanylacetamide]	no
CCOC(=O)C1CCN(C(=O)Cc2c(Sc3ccc(Cl)cc3)[nH]c3ccccc23)CC1 [KM-24, ethyl 1-[2-[2-(4-chlorophenyl)sulfanyl-1H-indol-3-yl]acetyl]piperidine-4-carboxylate]	no
CC(=O)Oc1ccccc1C(=CC=C(c1ccccc1)c1ccccc1)N1CCOCC1 [RF01254, 2-(1-morpholino-4,4-diphenylbuta-1,3-dienyl)phenyl acetate]	YES
N#Cc1ccc(-c2c(NC(=O)NS(=O)(=O)c3ccccc3Cl)oc(-c3ccco3)c2C#N)cc1 [CD09529, 2-[({[(2-chlorophenyl)sulphonyl]amino}carbonyl)amino]-4-cyano-3-(4-cyanophenyl)-5-(2-furyl)furan]	YES
O=C(CSc1nc2cc(Cl)ccc2o1)Nc1cc(C(F)(F)F)cc(C(F)(F)F)c1 [HTS01561, N-[3,5-bis(trifluoromethyl)phenyl]-2-[(5-chloro-1,3-benzoxazol-2-yl)thio]acetamide]	YES
O=C(CCN1CCN(C(=O)OCc2cc(Cl)cc(Cl)c2)CC1)c1ccc2[nH]c(=O)oc2c1 [PF-8380, 3,5-Dichlorobenzyl 4-(3-oxo-3-(2-oxo-2,3-dihydrobenzo[d]oxazol-6-yl)propyl)piperazine-1-carboxylate, reference compound]	no
O=C(Nc1c2c(nn1-c1ccc([N+](=O)[O-])cc1)CSC2)c1cccc2ccccc12 [SC-49, N-[2-(4-nitrophenyl)-4,6-dihydrothieno[3,4-c]pyrazol-3-yl]naphthalene-1-carboxamide]	no
Cc1[nH]c2ccccc2c1C1=CCN(S(=O)(=O)c2cccc3nsnc23)CC1 [SC-41, 4-{[4-(2-Methyl-1H-indol-3-yl)-3,6-dihydropyridin-1(2H)-yl]sulfonyl}-2,1,3-benzothiadiazole]	no
COc1cccc(NC(=S)N2CCn3cccc3C2c2ccc(OC)c(OC)c2)c1 (stereo not shown) [KM-26, 1-(3,4-dimethoxyphenyl)-N-(3-methoxyphenyl)-3,4-dihydro-1H-pyrrolo[1,2-a]pyrazine-2-carbothioamide]	partial inhibition and yes
